Assay results reported in PubChem BioAssay AID540276 (National Center for Advancing Translational Sciences (NCATS), 2011).
In all, about 300,000 compounds went through this assay and about 5,400 (1.8%) were called active. The inconclusive results got no clear call from the source; some entries with a clear call stand among them for comparison. The call rests on the fitted dose curve; tested in HEK293 cells. Potencies beside an inconclusive call are fits to weak or partial responses and may not hold up.
Potency means the concentration at half of the fitted maximal effect.

Assay: qHTS for inhibitors of binding or entry into cells for Marburg Virus
Settings: Marburg virus pseudotyped entry inhibition, cell reporter; series mostly up to 37.8 µM
For `O=C(CCN1CCCCC1)Nc1cccc(Cl)c1`, the Potency was “inactive”. In the case of `CC1CN(C(=O)c2cc3cc(Br)ccc3[nH]2)CC(C)O1` (configuration not stated), the Potency is reported as “inactive”. For `CC1CCCC(C)N1CCCNC(=O)c1ccc2c(c1)NC(=O)c1ccccc1S2` (configuration not stated), the Potency was inconclusive: 31.6 µM [inhibitor, single point]. In the case of `O=C(c1ccccc1Sc1c(Cl)cccc1[N+](=O)[O-])N1CCOCC1`, the Potency is reported as inconclusive: 2.06 µM [activator, partial curve, poor fit]. With `Nc1c(C(=O)Nc2ccccc2Br)sc2nc(-c3cccs3)ccc12` the Potency was “inactive”. In the case of `COc1ccccc1CNC(=O)CCN1C(=O)c2ccccc2C1=O`, the Potency is reported as “inactive”. With `O=C(CNC(=O)c1ccc(Br)o1)NNC(=O)c1ccccc1F` the Potency was inconclusive: 5.01 µM [activator, partial curve, poor fit]. In the case of `COc1ccc(C(=O)Nc2oc(-c3ccccc3)c(-c3ccccc3)c2C#N)cc1`, the Potency is reported as inconclusive: 5.01 µM [inhibitor, full curve, poor fit]. For `CSc1cccc(NC(=S)N(CCCN2CCC(C)CC2)Cc2cccs2)c1`, the Potency was inconclusive: 2.24 µM [inhibitor, single point]. With `COc1ccc(S(=O)(=O)N2CCCC2CNC(=O)C(=O)NCc2ccccc2Cl)cc1` (configuration not stated) the Potency was inconclusive: 20 µM [inhibitor, single point]. For `c1cc(-c2nnc(-c3ccncc3)o2)ccn1`, the Potency was “inactive”. For `O=C(C1CCN(c2nc3ccc(Br)cc3s2)CC1)N1CCC2(CC1)OCCO2`, the Potency was inconclusive: 3.55 µM [inhibitor, full curve]. With `CC(=O)N1CCN(Cc2nc3cc(NC(=O)c4ccccc4Cl)ccc3n2C)CC1` the Potency was “inactive”. In the case of `Cc1cccn2c(=O)c3cc(C(=O)NCC(C)C)sc3nc12`, the Potency is reported as inconclusive: 1.26 µM [inhibitor, single point]. With `COc1ccc(C(=O)NC(=S)Nc2cc3oc4ccccc4c3cc2OC)cc1` the Potency was inconclusive: 1.12 µM [inhibitor, partial curve, poor fit]. For `COc1ccc(CCNC(=S)N2CCN(S(=O)(=O)c3ccc(Cl)cc3)CC2)cc1`, the Potency was “inactive”. With `CCC(Sc1nc(C)cc(=O)[nH]1)C(=O)Nc1nc2c(s1)CCCC2` (configuration not stated) the Potency was “inactive”. With `Cc1c(C(C)(C)C)sc(=NC(=O)c2ccccc2O)n1C` the Potency was inconclusive: 0.562 µM [activator, full curve, poor fit]. With `C#CCOC(=O)CCCNc1ccc([N+](=O)[O-])cc1[N+](=O)[O-]` the Potency was inconclusive: 32.6 µM [activator, single point]. With `c1ccc2cc(CC3=NCCN3)ccc2c1` the Potency was inconclusive: 35.5 µM [inhibitor, single point]. With `O=C(CN(c1ccccc1)S(=O)(=O)c1ccccc1)NCCSc1nc2ccccc2s1` the Potency was inconclusive: 2.82 µM [inhibitor, partial curve]. In the case of `COc1ccc([N+](=O)[O-])cc1NC(=O)CSc1ccccc1`, the Potency is reported as inconclusive: 25.1 µM [inhibitor, single point]. With `O=c1cc(-c2ccc(C3CCCCC3)cc2)[nH][nH]1` the Potency was “inactive”. In the case of `CCCCCCCC(=O)N/N=C/c1ccncc1`, the Potency is reported as “inactive”. With `COc1ccc(/C=C/C(=O)Nc2nc(N)n(-c3ccccc3)n2)cc1` the Potency was inconclusive: 1.12 µM [activator, single point]. With `CCCCCCCCC(=O)NNC(=O)c1c(O)c2ccccc2n(CC)c1=O` the Potency was inconclusive: 1.41 µM [inhibitor, partial curve, poor fit]. For `O=C(/C=C/Nc1ccc(S(=O)(=O)Nc2ncccn2)cc1)c1ccc2ccccc2c1`, the Potency was “inactive”. With `C=CCSc1nc2c(cnn2-c2ccccc2)c(=O)n1N` the Potency was inconclusive: 1.78 µM [inhibitor, partial curve, poor fit]. For `COc1cccc(NC(=O)C(=O)NCCC2CCCCN2S(=O)(=O)c2ccccc2)c1` (configuration not stated), the Potency was “inactive”. In the case of `Cc1ccc(NC(=O)CCC(=O)NNC(=O)CCc2ccccc2)c(C)c1`, the Potency is reported as inconclusive: 2 µM [activator, full curve]. For `Cc1ccc(NC(=O)NC(=S)NC(=O)c2ccccc2)cc1`, the Potency was “inactive”. In the case of `CC1=NN(c2ccc([N+](=O)[O-])cc2)C(=O)/C1=C\N(C)C`, the Potency is reported as “inactive”. For `COc1ccc(S(=O)(=O)N(CC(=O)NCc2ccncc2)c2cc(C)cc(C)c2)cc1OC`, the Potency was inconclusive: 20.6 µM [inhibitor, partial curve, poor fit]. With `O=C(NCc1ccccc1F)C1CCN(C(=O)NCc2ccccc2)CC1` the Potency was “inactive”. In the case of `CSc1nc2nccc(-c3ccc(-c4ccccc4)cc3)n2n1`, the Potency is reported as “inactive”. With `COc1cc(N=Nc2c(O)c3ccccc3[nH]c2=O)c(OC)cc1N=Nc1ccccc1` the Potency was “inactive”. In the case of `CCOC(=O)c1cnc2c(ccc3ccccc32)c1Nc1ccc(N(C)C)cc1`, the Potency is reported as “inactive”. In the case of `CN(C)S(=O)(=O)c1ccc(NC(=O)N2CCN(c3ccccc3)CC2)cc1`, the Potency is reported as inconclusive: 7.08 µM [activator, partial curve, poor fit]. For `CC1(C)C(Cl)C(=O)C(C(=O)c2ccccc2)C(=O)C1Cl` (configuration not stated), the Potency was “inactive”. For `O=C(COc1cc(Cl)c(Cl)cc1Cl)NC(=O)Nc1ccc2c(c1)OCCO2`, the Potency was inconclusive: 17.8 µM [activator, single point]. For `Cc1ccc(C2=NNC(C(O)C(O)C(O)C(C)O)S2)cc1` (configuration not stated), the Potency was inconclusive: 20 µM [activator, partial curve, poor fit]. With `O=C(COc1ccc(S(=O)(=O)N2CCCC2)cc1Cl)NCc1ccc2c(c1)OCO2` the Potency was inconclusive: 35.5 µM [inhibitor, single point]. For `O=C(O)c1cc(-c2cc(C(=O)O)c3ccccc3n2)ccc1O`, the Potency was inconclusive: 2.51 µM [activator, partial curve, poor fit]. For `O=[N+]([O-])c1ccc(S(=O)(=O)NCCc2ccncc2)cc1`, the Potency was “inactive”. In the case of `CC(C)(C)c1ccccc1NC(=S)NCc1ccccc1`, the Potency is reported as inconclusive: 1.41 µM [activator, partial curve, poor fit]. For `CC(C)c1ccc(N(CC(=O)NC2CCCC2)C(=O)CCC(=O)Nc2nccs2)cc1`, the Potency was inconclusive: 15.8 µM [inhibitor, single point]. For `N#C/C(=C\c1cccc(O)c1)c1nc2ccccc2o1`, the Potency was “inactive”.
